Results reported in the supplement of paper PMC4604168 (melanoma cell lines).
This is one part of the list. Repeats are few or missing, and single values can be far off.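 Imaging used 1,536-well plates; nuclei positive for cleaved PARP by antibody were divided by total DNA-stained nuclei to yield the apoptosis fraction. Doses for screening kept most cells viable, and cell lines differ markedly in resting and induced cleaved-PARP levels.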

Assays:
Test in all cases: cleaved PARP positive nuclei fraction relative to DMSO control; melanoma cells; higher = more apoptosis
Settings in all cases: library dose: low library concentration; 72 h
MZ2-MEL = system: MZ2-MEL
MeWo = system: MeWo
RPMI7951 = system: RPMI7951
RVH-421 = system: RVH-421
SkMel28 = system: SkMel28
SkMel2 = system: SkMel2
SkMel30 = system: SkMel30
SkMel5 = system: SkMel5
UACC257 = system: UACC257
UACC62 = system: UACC62
WM115 = system: WM115
WM1716 = system: WM1716
WM1745 = system: WM1745
WM3526 = system: WM3526
WM3619 = system: WM3619
WM451Lu = system: WM451Lu

Compound | cleaved PARP positive nuclei fraction (MZ2-MEL) [%] | cleaved PARP positive nuclei fraction (MeWo) [%] | cleaved PARP positive nuclei fraction (RPMI7951) [%] | cleaved PARP positive nuclei fraction (RVH-421) [%] | cleaved PARP positive nuclei fraction (SkMel28) [%] | cleaved PARP positive nuclei fraction (SkMel2) [%] | cleaved PARP positive nuclei fraction (SkMel30) [%] | cleaved PARP positive nuclei fraction (SkMel5) [%] | cleaved PARP positive nuclei fraction (UACC257) [%] | cleaved PARP positive nuclei fraction (UACC62) [%] | cleaved PARP positive nuclei fraction (WM115) [%] | cleaved PARP positive nuclei fraction (WM1716) [%] | cleaved PARP positive nuclei fraction (WM1745) [%] | cleaved PARP positive nuclei fraction (WM3526) [%] | cleaved PARP positive nuclei fraction (WM3619) [%] | cleaved PARP positive nuclei fraction (WM451Lu) [%]
NC(=O)c1ccc(N(C(N)=O)c2c(F)cccc2F)nc1-c1ccc(F)cc1F + CN(C)S(=O)(=O)c1ccc2c(c1)/C(=C/c1cc3c([nH]1)CCCC3)C(=O)N2 [SU6656] (first compound 0.4 µM, partner dose 0.4 µM) | 216 | 121 | 59.4 | 73.6 | 355 | 33.8 | 62.6 | 55.4 | 129 | 158 | 119 | 106 | 94.9 | 62.2 | 91.3 | 362
Cn1sc(=O)n(Cc2ccccc2)c1=O + O=C1NC(=O)/C(=C/c2ccc(-c3ccc(F)cc3O)o2)S1 [AS252424] (first compound 0.4 µM, partner dose 1 µM) | 311 | 28.1 | 48 | 150 | 74.9 | 109 | 309 | 35.5 | 182 | 160 | 93.6 | 78.4 | 102 | 40.1 | 98.8 | 296
C[C@@H](N)c1ccc(C(=O)Nc2ccnc3[nH]ccc23)cc1 + c1cc(-c2cnn3cc(-c4ccc(OCCN5CCCCC5)cc4)cnc23)ccn1 [Dorsomorphin] (first compound 0.4 µM, partner dose 0.4 µM) | 160 | 124 | 210 | 496 | 173 | 57.6 | 108 | 52 | 116 | 223 | 51 | 108 | 119 | 33.2 | 98.9 | 50.7
C[C@]1(O)C[C@@H](c2nc(-c3ccc4ccc(-c5ccccc5)nc4c3)c3c(N)nccn32)C1 + CC(C)(C)c1cnc(CSc2cnc(NC(=O)C3CCNCC3)s2)o1 [SNS-032] (first compound 0.4 µM, partner dose 0.01 µM) | 88.4 | 35.4 | 85.2 | 49.1 | 75.3 | 121 | 71.8 | 36.9 | 138 | 175 | 153 | 176 | 126 | 67.4 | 103 | 493
CS(=O)(=O)c1ccc(C(=O)Nc2ccc(Cl)c(-c3ccccn3)c2)c(Cl)c1 [vismodegib] + Oc1nc(-c2ccc(C(F)(F)F)cc2)nc2c1CSCC2 [XAV939] (first compound 1 µM, partner dose 2 µM) | 100 | 112 | 157 | 94.7 | 117 | 104 | 35.3 | 94.3 | 72.9 | 120 | 78.7 | 172 | 106 | 131 | 97.6 | 141
CN(c1ncccc1CNc1nc(Nc2ccc3c(c2)CC(=O)N3)ncc1C(F)(F)F)S(C)(=O)=O + C=CCn1c(=O)c2cnc(Nc3ccc(N4CCN(C)CC4)cc3)nc2n1-c1cccc(C(C)(C)O)n1 [MK1775] (first compound 0.08 µM, partner dose 0.02 µM) | 177 | 85.8 | 86 | 97.6 | 276 | 133 | 45.1 | 92.6 | 147 | 92.7 | 99.1 | 137 | 133 | 241 | 127 | 125
C[C@@H](N)c1ccc(C(=O)Nc2ccnc3[nH]ccc23)cc1 + O=C(O)c1ccc(-c2c[nH]c3ncc(-c4ccccc4)cc23)cc1C1CCCC1 [GSK650394] (first compound 0.4 µM, partner dose 0.16 µM) | 163 | 142 | 220 | 44 | 66.1 | 135 | 61.6 | 41 | 80 | 92 | 146 | 310 | 102 | 57.6 | 95.7 | 51.3
NC(=O)c1ccc(N(C(N)=O)c2c(F)cccc2F)nc1-c1ccc(F)cc1F + COC(=O)c1sccc1S(=O)(=O)Nc1ccc(Nc2ccccc2)cc1OC [GSK0660] (first compound 0.4 µM, partner dose 1 µM) | 106 | 134 | 66.3 | 387 | 99.6 | 160 | 33.5 | 73.7 | 170 | 103 | 60.5 | 89.6 | 92.8 | 80.5 | 80.8 | 101
C[C@@H](N)c1ccc(C(=O)Nc2ccnc3[nH]ccc23)cc1 + CCCCCCCCCCCC1=C(O)C(=O)C=C(O)C1=O [Embelin] (first compound 0.4 µM, partner dose 1.2 µM) | 186 | 114 | 161 | 176 | 137 | 137 | 145 | 107 | 56.7 | 175 | 94 | 109 | 113 | 77.8 | 108 | 77.7
C[C@@H](N)c1ccc(C(=O)Nc2ccnc3[nH]ccc23)cc1 + O=S(=O)(c1ccccc1)N(CC(F)(F)F)c1ccc(C(O)(C(F)(F)F)C(F)(F)F)cc1 [T0901317] (first compound 0.4 µM, partner dose 1.4 µM) | 186 | 196 | 57.6 | 155 | 84.7 | 84.2 | 199 | 219 | 164 | 182 | 326 | 155 | 125 | 77 | 93.6 | 61.9
CN(c1ncccc1CNc1nc(Nc2ccc3c(c2)CC(=O)N3)ncc1C(F)(F)F)S(C)(=O)=O + O=S(=O)(c1ccccc1)N(CC(F)(F)F)c1ccc(C(O)(C(F)(F)F)C(F)(F)F)cc1 [T0901317] (first compound 0.08 µM, partner dose 1.4 µM) | 47.9 | 45.2 | 68 | 39.9 | 107 | 97.7 | 179 | 107 | 130 | 125 | 296 | 246 | 144 | 428 | 94.1 | 114
CN(c1ncccc1CNc1nc(Nc2ccc3c(c2)CC(=O)N3)ncc1C(F)(F)F)S(C)(=O)=O + C[C@@H]1CCN(C(=O)CC#N)C[C@@H]1N(C)c1ncnc2[nH]ccc12 [CP690550] (first compound 0.08 µM, partner dose 1 µM) | 128 | 163 | 64.6 | 25.3 | 160 | 99.9 | 140 | 80.5 | 137 | 145 | 143 | 90.8 | 102 | 53.7 | 93.5 | 43.2
CN(c1ncccc1CNc1nc(Nc2ccc3c(c2)CC(=O)N3)ncc1C(F)(F)F)S(C)(=O)=O + COC(=O)c1sccc1S(=O)(=O)Nc1ccc(Nc2ccccc2)cc1OC [GSK0660] (first compound 0.08 µM, partner dose 1 µM) | 367 | 176 | 124 | 92.9 | 168 | 186 | 183 | 304 | 160 | 314 | 315 | 103 | 116 | 72.8 | 86.2 | 68
CC1(C)CCC(c2ccc(Cl)cc2)=C(CN2CCN(c3ccc(C(=O)NS(=O)(=O)c4ccc(N[C@H](CCN5CCOCC5)CSc5ccccc5)c(S(=O)(=O)C(F)(F)F)c4)cc3)CC2)C1 + C[C@@H]1CCN(C(=O)CC#N)C[C@@H]1N(C)c1ncnc2[nH]ccc12 [CP690550] (first compound 0.4 µM, partner dose 1 µM) | 104 | 471 | 137 | 111 | 56.9 | 115 | 97.3 | 188 | 201 | 43.6 | 73.4 | 361 | 2240 | 77.5 | 133 | 132
NC(=O)c1ccc(N(C(N)=O)c2c(F)cccc2F)nc1-c1ccc(F)cc1F + N#Cc1c(O)c2c(-c3ccc(-c4ccccc4O)cc3)csc2[nH]c1=O [A769662] (first compound 0.4 µM, partner dose 2 µM) | 28.5 | 50.1 | 88.4 | 120 | 56.7 | 126 | 108 | 65.9 | 23 | 90.7 | 107 | 22.7 | 92.5 | 46 | 82.8 | 105
COc1ccc(C2=N[C@@H](c3ccc(Cl)cc3)[C@@H](c3ccc(Cl)cc3)N2C(=O)N2CCNC(=O)C2)c(OC(C)C)c1 [Nutlin-3] + O=C(O)c1ccc2c(c1)nc(Nc1cccc(Cl)c1)c1ccncc12 [CX4945] (first compound 0.1 µM, partner dose 0.4 µM) | 95.5 | 120 | 158 | 129 | 61.4 | 126 | 99.6 | 42.3 | 42.3 | 90.7 | 81.7 | 44.9 | 110 | 48 | 90.7 | 89.1
CS(=O)(=O)c1ccc(C(=O)Nc2ccc(Cl)c(-c3ccccn3)c2)c(Cl)c1 [vismodegib] + CO[C@@H]1[C@H](N(C)C(=O)c2ccccc2)C[C@H]2O[C@]1(C)n1c3ccccc3c3c4c(c5c6ccccc6n2c5c31)C(=O)NC4 [Midostaurin] (first compound 1 µM, partner dose 0.08 µM) | 49.2 | 122 | 101 | 365 | 71.7 | 61.8 | 64 | 32.2 | 127 | 147 | 126 | 85.2 | 103 | 52 | 88.3 | 86.3
C[C@@H](N)c1ccc(C(=O)Nc2ccnc3[nH]ccc23)cc1 + C[C@@H]1CCN(C(=O)CC#N)C[C@@H]1N(C)c1ncnc2[nH]ccc12 [CP690550] (first compound 0.4 µM, partner dose 1 µM) | 38 | 35.1 | 175 | 223 | 138 | 45.2 | 54.3 | 413 | 103 | 25.8 | 41 | 238 | 114 | 203 | 70.2 | 57.5

For convenience, some entries already given:
Compound | cleaved PARP positive nuclei fraction (MZ2-MEL) [%] | cleaved PARP positive nuclei fraction (MeWo) [%] | cleaved PARP positive nuclei fraction (RPMI7951) [%] | cleaved PARP positive nuclei fraction (RVH-421) [%] | cleaved PARP positive nuclei fraction (SkMel28) [%] | cleaved PARP positive nuclei fraction (SkMel2) [%] | cleaved PARP positive nuclei fraction (SkMel30) [%] | cleaved PARP positive nuclei fraction (SkMel5) [%] | cleaved PARP positive nuclei fraction (UACC257) [%] | cleaved PARP positive nuclei fraction (UACC62) [%] | cleaved PARP positive nuclei fraction (WM115) [%] | cleaved PARP positive nuclei fraction (WM1716) [%] | cleaved PARP positive nuclei fraction (WM1745) [%] | cleaved PARP positive nuclei fraction (WM3526) [%] | cleaved PARP positive nuclei fraction (WM3619) [%] | cleaved PARP positive nuclei fraction (WM451Lu) [%]
C[C@@H](N)c1ccc(C(=O)Nc2ccnc3[nH]ccc23)cc1 + CCCCCCCCCCCC1=C(O)C(=O)C=C(O)C1=O [Embelin] (first compound 0.4 µM, partner dose 1.2 µM) | 186 | 114 | 161 | 176 | 137 | 137 | 145 | 107 | 56.7 | 175 | 94 | 109 | 113 | 77.8 | 108 | 77.7
C[C@@H](N)c1ccc(C(=O)Nc2ccnc3[nH]ccc23)cc1 + O=S(=O)(c1ccccc1)N(CC(F)(F)F)c1ccc(C(O)(C(F)(F)F)C(F)(F)F)cc1 [T0901317] (first compound 0.4 µM, partner dose 1.4 µM) | 186 | 196 | 57.6 | 155 | 84.7 | 84.2 | 199 | 219 | 164 | 182 | 326 | 155 | 125 | 77 | 93.6 | 61.9
CN(c1ncccc1CNc1nc(Nc2ccc3c(c2)CC(=O)N3)ncc1C(F)(F)F)S(C)(=O)=O + O=S(=O)(c1ccccc1)N(CC(F)(F)F)c1ccc(C(O)(C(F)(F)F)C(F)(F)F)cc1 [T0901317] (first compound 0.08 µM, partner dose 1.4 µM) | 47.9 | 45.2 | 68 | 39.9 | 107 | 97.7 | 179 | 107 | 130 | 125 | 296 | 246 | 144 | 428 | 94.1 | 114
CN(c1ncccc1CNc1nc(Nc2ccc3c(c2)CC(=O)N3)ncc1C(F)(F)F)S(C)(=O)=O + C[C@@H]1CCN(C(=O)CC#N)C[C@@H]1N(C)c1ncnc2[nH]ccc12 [CP690550] (first compound 0.08 µM, partner dose 1 µM) | 128 | 163 | 64.6 | 25.3 | 160 | 99.9 | 140 | 80.5 | 137 | 145 | 143 | 90.8 | 102 | 53.7 | 93.5 | 43.2
